Reference: publication PMC8096250
Results are given in words; binding and its absence hold for the method and conditions named. Some entries that bind do so weakly or less than the wild type.

Target: T1, Gar1 (S. cerevisiae) (UniProt P28007)
T1 sequence: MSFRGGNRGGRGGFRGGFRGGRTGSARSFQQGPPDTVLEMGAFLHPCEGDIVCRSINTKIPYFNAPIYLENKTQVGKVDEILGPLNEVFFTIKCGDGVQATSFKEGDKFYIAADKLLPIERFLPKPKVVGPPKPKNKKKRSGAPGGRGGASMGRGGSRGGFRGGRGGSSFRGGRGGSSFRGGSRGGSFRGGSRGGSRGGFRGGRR
Test: co-purification after co-expression (Ni-NTA, then SEC); Cbf5, Nop10 and Gar1 co-expressed in E. coli BL21 (DE3); lysate treated with RNase A, DNase and PEI; HisTrap in 50 mM Tris/HCl pH 8.0, 0.5 M NaCl, 10% glycerol, imidazole gradient; Superdex 200; fractions analysed by SDS-PAGE

B1: Nop10 (protein, UniProt Q6Q547 1-58)
chain: MHLMYTLGPDGKRIYTLKKVTESGEITKSAHPARFSPDDKYSRQRVTLKKRFGLVPGQ
- binding: binds
